{"source": "the supplement of paper PMC6411743", "test_in_all_cases": "NP40-soluble protein abundance relative to vehicle (solubility fold change) (ratio); higher = more soluble protein in presence of ATP", "key": {"AATF": {"biological_target": "T1, AATF (UniProt Q9NY61)", "T1 sequence (whole entry)": "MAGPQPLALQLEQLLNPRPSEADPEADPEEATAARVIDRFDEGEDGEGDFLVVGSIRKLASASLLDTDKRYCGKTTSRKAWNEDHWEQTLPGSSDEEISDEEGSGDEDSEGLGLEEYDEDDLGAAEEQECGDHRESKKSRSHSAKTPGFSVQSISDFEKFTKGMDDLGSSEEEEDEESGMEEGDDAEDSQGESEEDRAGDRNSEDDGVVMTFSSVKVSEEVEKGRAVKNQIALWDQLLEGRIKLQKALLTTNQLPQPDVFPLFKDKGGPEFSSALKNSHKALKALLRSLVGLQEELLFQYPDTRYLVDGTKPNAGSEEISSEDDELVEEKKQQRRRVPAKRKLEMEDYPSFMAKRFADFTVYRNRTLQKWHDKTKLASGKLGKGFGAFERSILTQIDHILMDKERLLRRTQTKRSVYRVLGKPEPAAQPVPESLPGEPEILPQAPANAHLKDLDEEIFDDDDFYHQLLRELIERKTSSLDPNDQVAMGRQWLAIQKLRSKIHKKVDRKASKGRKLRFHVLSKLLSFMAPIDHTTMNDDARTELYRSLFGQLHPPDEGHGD", "in_short": "(§1)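 Values are fold changes against the detergent-processed vehicle, based on vsn-normalised intensities. Jurkat crude lysate was treated at eight concentrations from 0.1 to 10 mM (10 min at room temperature, then 3 min at 37 °C), solubilised with 0.8% NP40 and benzonase, ultracentrifuged and analysed by TMT-labelled LC-MS/MS over three independent experiments.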"}, "DCP1A": {"biological_target": "T2, DCP1A (UniProt Q9NPI6)", "T2 sequence (whole entry)": "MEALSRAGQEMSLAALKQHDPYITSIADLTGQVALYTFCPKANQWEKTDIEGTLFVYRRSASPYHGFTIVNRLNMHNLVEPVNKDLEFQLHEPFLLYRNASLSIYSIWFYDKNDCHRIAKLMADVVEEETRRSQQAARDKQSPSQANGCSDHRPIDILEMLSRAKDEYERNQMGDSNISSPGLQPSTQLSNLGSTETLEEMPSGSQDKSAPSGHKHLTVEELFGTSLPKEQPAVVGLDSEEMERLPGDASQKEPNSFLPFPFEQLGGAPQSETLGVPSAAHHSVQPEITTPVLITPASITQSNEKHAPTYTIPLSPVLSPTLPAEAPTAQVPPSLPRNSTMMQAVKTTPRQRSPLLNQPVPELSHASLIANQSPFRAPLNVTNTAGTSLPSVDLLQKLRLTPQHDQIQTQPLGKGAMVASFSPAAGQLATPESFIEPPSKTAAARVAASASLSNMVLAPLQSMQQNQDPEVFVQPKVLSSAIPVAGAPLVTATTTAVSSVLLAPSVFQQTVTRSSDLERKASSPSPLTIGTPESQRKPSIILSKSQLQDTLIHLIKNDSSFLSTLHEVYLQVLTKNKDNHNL", "in_short": "as §1"}, "FARSB": {"biological_target": "T3, FARSB (UniProt Q9NSD9)", "T3 sequence (whole entry)": "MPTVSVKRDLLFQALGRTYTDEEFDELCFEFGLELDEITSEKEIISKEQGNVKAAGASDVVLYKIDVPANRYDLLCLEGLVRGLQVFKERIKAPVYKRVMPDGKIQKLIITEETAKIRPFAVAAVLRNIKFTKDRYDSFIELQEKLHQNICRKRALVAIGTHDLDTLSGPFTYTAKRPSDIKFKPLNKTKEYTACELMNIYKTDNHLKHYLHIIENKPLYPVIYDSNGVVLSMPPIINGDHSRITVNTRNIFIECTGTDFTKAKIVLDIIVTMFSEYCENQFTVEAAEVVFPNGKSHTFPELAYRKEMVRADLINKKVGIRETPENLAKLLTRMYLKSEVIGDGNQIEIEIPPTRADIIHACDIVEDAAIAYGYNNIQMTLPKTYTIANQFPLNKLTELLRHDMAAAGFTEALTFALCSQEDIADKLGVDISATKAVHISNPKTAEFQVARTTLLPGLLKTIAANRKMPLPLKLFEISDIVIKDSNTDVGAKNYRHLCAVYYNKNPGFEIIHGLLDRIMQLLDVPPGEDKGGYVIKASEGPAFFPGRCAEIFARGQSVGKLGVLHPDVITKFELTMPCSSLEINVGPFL", "in_short": "as §1"}, "HSPBP1": {"biological_target": "T4, HSPBP1 (UniProt Q9NZL4)", "T4 sequence (whole entry)": "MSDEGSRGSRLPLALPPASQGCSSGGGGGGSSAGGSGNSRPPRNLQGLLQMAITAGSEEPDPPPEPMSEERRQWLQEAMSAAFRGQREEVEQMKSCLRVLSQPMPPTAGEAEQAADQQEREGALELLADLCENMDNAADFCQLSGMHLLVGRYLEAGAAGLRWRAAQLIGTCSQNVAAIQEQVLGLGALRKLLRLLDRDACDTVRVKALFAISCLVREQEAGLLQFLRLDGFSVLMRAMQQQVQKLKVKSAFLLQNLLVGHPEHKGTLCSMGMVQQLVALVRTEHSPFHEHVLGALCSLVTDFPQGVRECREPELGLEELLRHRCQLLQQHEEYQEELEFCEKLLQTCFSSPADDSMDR", "in_short": "as §1"}, "MED17": {"biological_target": "T5, MED17 (UniProt Q9NVC6)", "T5 sequence (whole entry)": "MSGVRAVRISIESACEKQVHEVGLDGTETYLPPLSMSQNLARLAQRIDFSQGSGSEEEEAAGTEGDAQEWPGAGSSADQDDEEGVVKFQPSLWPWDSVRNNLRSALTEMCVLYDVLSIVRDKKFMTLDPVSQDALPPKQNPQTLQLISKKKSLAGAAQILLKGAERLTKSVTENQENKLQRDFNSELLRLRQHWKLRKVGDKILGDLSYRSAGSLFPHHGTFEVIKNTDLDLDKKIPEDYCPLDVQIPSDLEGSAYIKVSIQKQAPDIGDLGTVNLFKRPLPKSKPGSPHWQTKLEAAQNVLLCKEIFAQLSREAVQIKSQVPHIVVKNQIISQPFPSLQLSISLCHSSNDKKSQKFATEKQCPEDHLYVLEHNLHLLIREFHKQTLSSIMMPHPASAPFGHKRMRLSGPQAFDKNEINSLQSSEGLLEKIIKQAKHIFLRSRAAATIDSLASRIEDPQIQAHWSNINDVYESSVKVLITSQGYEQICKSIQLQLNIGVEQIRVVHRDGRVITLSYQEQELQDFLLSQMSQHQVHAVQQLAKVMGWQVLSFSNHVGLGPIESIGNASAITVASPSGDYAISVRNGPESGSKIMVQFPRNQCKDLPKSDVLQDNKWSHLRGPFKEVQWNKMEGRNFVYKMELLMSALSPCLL", "in_short": "as §1"}, "RBM12": {"biological_target": "T6, RBM12 (UniProt Q9NTZ6)", "T6 sequence (whole entry)": "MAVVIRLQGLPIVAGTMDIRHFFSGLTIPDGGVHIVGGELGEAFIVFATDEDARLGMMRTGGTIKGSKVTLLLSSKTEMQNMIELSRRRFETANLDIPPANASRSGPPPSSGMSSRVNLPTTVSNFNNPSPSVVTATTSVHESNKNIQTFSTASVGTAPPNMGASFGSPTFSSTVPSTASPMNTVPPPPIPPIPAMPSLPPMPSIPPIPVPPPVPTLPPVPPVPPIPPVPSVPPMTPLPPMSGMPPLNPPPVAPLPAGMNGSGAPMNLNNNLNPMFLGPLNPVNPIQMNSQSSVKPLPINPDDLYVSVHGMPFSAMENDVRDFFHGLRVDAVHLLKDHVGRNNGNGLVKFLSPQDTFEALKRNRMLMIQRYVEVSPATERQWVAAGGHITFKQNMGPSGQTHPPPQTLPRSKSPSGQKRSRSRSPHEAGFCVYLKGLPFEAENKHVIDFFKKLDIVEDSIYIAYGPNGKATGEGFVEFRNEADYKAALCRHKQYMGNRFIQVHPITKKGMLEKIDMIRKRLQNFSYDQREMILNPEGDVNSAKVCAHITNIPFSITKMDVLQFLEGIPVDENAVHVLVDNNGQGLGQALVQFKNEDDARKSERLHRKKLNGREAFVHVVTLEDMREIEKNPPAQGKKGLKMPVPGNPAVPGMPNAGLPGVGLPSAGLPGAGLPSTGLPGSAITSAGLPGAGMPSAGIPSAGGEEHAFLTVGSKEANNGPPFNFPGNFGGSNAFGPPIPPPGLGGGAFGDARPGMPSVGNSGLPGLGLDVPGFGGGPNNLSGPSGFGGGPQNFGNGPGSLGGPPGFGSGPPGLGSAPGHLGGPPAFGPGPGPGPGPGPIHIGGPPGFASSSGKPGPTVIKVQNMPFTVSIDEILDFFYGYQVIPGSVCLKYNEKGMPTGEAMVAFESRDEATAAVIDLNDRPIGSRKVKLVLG", "details": "concentration: 1mM", "in_short": "as §1"}}, "note": "± gives the standard deviation of the averaged measurements. This is a selection; strong and weak results do not stand in their true shares.", "data": [{"smiles": "Nc1ncnc2c1ncn2[C@@H]1O[C@H](COP(=O)(O)OP(=O)(O)OP(=O)(O)O)[C@@H](O)[C@H]1O", "note": "[adenosine triphosphate]", "values": [{"measurement": "NP40-soluble protein abundance", "setting": "AATF; concentration: 1mM", "value": "1.03 ± 0.084"}, {"measurement": "NP40-soluble protein abundance", "setting": "AATF; concentration: 2mM", "value": "1.09 ± 0.085"}, {"measurement": "NP40-soluble protein abundance", "setting": "AATF; concentration: 4mM", "value": "1.15 ± 0.11"}, {"measurement": "NP40-soluble protein abundance", "setting": "AATF; concentration: 6mM", "value": "1.22 ± 0.034"}, {"measurement": "NP40-soluble protein abundance", "setting": "AATF; concentration: 8mM", "value": "1.22 ± 0.085"}, {"measurement": "NP40-soluble protein abundance", "setting": "AATF; concentration: 10mM", "value": "1.29 ± 0.078"}, {"measurement": "NP40-soluble protein abundance", "setting": "DCP1A; concentration: 1mM", "value": "0.978 ± 0.017"}, {"measurement": "NP40-soluble protein abundance", "setting": "DCP1A; concentration: 2mM", "value": "0.965 ± 0.019"}, {"measurement": "NP40-soluble protein abundance", "setting": "DCP1A; concentration: 4mM", "value": "0.984 ± 0.037"}, {"measurement": "NP40-soluble protein abundance", "setting": "DCP1A; concentration: 6mM", "value": "0.98 ± 0.02"}, {"measurement": "NP40-soluble protein abundance", "setting": "DCP1A; concentration: 8mM", "value": "0.958 ± 0.021"}, {"measurement": "NP40-soluble protein abundance", "setting": "DCP1A; concentration: 10mM", "value": "0.959 ± 0.023"}, {"measurement": "NP40-soluble protein abundance", "setting": "FARSB; concentration: 1mM", "value": "0.999 ± 0.07"}, {"measurement": "NP40-soluble protein abundance", "setting": "FARSB; concentration: 2mM", "value": "0.96 ± 0.065"}, {"measurement": "NP40-soluble protein abundance", "setting": "FARSB; concentration: 4mM", "value": "0.943 ± 0.053"}, {"measurement": "NP40-soluble protein abundance", "setting": "FARSB; concentration: 6mM", "value": "0.926 ± 0.11"}, {"measurement": "NP40-soluble protein abundance", "setting": "FARSB; concentration: 8mM", "value": "0.986 ± 0.045"}, {"measurement": "NP40-soluble protein abundance", "setting": "FARSB; concentration: 10mM", "value": "0.931 ± 0.063"}, {"measurement": "NP40-soluble protein abundance", "setting": "HSPBP1; concentration: 1mM", "value": "0.901 ± 0.039"}, {"measurement": "NP40-soluble protein abundance", "setting": "HSPBP1; concentration: 2mM", "value": "0.922 ± 0.022"}, {"measurement": "NP40-soluble protein abundance", "setting": "HSPBP1; concentration: 4mM", "value": "0.899 ± 0.033"}, {"measurement": "NP40-soluble protein abundance", "setting": "HSPBP1; concentration: 6mM", "value": "0.849 ± 0.077"}, {"measurement": "NP40-soluble protein abundance", "setting": "HSPBP1; concentration: 8mM", "value": "0.877 ± 0.046"}, {"measurement": "NP40-soluble protein abundance", "setting": "HSPBP1; concentration: 10mM", "value": "0.87 ± 0.062"}, {"measurement": "NP40-soluble protein abundance", "setting": "MED17; concentration: 1mM", "value": "1.01 ± 0.053"}, {"measurement": "NP40-soluble protein abundance", "setting": "MED17; concentration: 2mM", "value": "0.996 ± 0.064"}, {"measurement": "NP40-soluble protein abundance", "setting": "MED17; concentration: 4mM", "value": "1.04 ± 0.068"}, {"measurement": "NP40-soluble protein abundance", "setting": "MED17; concentration: 6mM", "value": "0.983 ± 0.064"}, {"measurement": "NP40-soluble protein abundance", "setting": "MED17; concentration: 8mM", "value": "1.03 ± 0.068"}, {"measurement": "NP40-soluble protein abundance", "setting": "MED17; concentration: 10mM", "value": "1.03 ± 0.052"}, {"measurement": "NP40-soluble protein abundance", "setting": "RBM12", "value": "0.962 ± 0.075"}]}]}
